Measurements published in article doi:10.1101/2021.11.19.469212.
These are yes or no findings as the source states them, for the method shown. In cells and extracts the contact can be indirect. A yes stands for co-enrichment or nearness to the bait. Other partners may have been found. For some of these results: Sequences can lack the tags named with a protein. Each block holds one molecule with its values, some of them ahead of it.

Protein sequences, listed by entry. Tags and fused reporters are not part of them. Residues count along the entry.
UniProt Q96CW1: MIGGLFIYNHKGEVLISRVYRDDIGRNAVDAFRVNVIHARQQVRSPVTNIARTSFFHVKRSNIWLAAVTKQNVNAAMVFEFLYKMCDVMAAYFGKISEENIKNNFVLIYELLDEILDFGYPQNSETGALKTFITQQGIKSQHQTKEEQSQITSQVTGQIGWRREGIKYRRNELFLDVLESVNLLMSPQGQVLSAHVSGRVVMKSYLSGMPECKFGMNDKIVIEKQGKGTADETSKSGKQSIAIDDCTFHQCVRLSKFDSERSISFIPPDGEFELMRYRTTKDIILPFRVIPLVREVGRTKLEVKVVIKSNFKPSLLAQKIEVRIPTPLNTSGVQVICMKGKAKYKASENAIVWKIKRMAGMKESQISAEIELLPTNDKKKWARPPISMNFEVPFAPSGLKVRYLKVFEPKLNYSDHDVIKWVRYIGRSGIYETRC
UniProt P56199, residues 29-1179: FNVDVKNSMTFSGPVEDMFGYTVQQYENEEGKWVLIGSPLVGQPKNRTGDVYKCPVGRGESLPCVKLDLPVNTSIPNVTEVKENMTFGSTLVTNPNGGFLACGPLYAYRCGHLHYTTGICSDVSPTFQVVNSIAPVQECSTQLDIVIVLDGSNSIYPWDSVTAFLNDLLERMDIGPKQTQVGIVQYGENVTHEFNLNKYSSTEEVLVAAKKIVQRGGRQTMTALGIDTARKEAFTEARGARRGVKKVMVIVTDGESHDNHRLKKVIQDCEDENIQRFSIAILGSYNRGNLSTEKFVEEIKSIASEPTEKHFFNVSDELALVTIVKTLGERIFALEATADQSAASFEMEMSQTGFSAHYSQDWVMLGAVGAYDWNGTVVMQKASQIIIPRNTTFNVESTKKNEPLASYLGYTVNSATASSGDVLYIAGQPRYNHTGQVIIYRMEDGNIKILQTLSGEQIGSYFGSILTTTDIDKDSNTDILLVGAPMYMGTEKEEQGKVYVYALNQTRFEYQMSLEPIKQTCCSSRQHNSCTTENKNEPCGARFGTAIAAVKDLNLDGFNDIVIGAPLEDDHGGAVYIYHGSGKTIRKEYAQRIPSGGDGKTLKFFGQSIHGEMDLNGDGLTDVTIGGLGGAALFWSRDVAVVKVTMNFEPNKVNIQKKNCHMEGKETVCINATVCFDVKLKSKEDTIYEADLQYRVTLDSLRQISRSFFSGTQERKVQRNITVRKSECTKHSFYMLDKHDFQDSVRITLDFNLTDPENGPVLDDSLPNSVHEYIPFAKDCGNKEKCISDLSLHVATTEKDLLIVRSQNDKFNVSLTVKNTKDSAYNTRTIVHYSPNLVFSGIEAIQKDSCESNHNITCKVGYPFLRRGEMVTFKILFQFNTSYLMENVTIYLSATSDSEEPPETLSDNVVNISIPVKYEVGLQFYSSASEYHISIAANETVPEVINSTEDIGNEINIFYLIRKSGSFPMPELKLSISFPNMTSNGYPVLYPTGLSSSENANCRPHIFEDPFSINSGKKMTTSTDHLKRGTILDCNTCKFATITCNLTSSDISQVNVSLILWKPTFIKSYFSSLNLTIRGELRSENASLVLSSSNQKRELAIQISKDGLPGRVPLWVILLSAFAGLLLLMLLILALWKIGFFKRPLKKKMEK
UniProt P06756, residues 31-1048: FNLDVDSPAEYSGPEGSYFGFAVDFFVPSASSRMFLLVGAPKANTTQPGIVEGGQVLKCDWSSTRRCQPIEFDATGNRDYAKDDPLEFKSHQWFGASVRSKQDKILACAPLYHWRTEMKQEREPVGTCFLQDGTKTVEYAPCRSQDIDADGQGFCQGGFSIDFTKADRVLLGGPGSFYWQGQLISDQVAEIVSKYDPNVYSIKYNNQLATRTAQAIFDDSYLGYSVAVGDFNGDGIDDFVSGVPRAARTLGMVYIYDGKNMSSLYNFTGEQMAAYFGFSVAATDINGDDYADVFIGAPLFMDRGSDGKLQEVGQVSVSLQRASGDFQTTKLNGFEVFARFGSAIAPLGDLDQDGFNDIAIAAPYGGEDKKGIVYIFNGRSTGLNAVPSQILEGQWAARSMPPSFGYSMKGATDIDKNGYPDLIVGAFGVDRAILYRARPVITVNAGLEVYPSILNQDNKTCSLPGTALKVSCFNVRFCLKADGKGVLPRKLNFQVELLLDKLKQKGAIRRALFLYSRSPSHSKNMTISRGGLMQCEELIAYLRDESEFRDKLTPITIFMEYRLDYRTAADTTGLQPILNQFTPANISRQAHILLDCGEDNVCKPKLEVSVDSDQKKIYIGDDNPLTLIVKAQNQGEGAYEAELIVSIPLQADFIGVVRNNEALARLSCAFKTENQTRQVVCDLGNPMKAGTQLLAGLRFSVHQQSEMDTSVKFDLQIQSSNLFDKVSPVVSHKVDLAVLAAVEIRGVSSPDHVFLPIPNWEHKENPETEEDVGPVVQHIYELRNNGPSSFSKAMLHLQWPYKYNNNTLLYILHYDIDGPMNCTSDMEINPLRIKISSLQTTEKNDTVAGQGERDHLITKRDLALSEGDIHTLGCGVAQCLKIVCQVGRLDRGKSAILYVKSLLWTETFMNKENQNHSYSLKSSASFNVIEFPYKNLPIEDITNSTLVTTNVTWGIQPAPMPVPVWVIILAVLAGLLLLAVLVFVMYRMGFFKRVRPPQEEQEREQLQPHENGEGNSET
UniProt Q9P2D3: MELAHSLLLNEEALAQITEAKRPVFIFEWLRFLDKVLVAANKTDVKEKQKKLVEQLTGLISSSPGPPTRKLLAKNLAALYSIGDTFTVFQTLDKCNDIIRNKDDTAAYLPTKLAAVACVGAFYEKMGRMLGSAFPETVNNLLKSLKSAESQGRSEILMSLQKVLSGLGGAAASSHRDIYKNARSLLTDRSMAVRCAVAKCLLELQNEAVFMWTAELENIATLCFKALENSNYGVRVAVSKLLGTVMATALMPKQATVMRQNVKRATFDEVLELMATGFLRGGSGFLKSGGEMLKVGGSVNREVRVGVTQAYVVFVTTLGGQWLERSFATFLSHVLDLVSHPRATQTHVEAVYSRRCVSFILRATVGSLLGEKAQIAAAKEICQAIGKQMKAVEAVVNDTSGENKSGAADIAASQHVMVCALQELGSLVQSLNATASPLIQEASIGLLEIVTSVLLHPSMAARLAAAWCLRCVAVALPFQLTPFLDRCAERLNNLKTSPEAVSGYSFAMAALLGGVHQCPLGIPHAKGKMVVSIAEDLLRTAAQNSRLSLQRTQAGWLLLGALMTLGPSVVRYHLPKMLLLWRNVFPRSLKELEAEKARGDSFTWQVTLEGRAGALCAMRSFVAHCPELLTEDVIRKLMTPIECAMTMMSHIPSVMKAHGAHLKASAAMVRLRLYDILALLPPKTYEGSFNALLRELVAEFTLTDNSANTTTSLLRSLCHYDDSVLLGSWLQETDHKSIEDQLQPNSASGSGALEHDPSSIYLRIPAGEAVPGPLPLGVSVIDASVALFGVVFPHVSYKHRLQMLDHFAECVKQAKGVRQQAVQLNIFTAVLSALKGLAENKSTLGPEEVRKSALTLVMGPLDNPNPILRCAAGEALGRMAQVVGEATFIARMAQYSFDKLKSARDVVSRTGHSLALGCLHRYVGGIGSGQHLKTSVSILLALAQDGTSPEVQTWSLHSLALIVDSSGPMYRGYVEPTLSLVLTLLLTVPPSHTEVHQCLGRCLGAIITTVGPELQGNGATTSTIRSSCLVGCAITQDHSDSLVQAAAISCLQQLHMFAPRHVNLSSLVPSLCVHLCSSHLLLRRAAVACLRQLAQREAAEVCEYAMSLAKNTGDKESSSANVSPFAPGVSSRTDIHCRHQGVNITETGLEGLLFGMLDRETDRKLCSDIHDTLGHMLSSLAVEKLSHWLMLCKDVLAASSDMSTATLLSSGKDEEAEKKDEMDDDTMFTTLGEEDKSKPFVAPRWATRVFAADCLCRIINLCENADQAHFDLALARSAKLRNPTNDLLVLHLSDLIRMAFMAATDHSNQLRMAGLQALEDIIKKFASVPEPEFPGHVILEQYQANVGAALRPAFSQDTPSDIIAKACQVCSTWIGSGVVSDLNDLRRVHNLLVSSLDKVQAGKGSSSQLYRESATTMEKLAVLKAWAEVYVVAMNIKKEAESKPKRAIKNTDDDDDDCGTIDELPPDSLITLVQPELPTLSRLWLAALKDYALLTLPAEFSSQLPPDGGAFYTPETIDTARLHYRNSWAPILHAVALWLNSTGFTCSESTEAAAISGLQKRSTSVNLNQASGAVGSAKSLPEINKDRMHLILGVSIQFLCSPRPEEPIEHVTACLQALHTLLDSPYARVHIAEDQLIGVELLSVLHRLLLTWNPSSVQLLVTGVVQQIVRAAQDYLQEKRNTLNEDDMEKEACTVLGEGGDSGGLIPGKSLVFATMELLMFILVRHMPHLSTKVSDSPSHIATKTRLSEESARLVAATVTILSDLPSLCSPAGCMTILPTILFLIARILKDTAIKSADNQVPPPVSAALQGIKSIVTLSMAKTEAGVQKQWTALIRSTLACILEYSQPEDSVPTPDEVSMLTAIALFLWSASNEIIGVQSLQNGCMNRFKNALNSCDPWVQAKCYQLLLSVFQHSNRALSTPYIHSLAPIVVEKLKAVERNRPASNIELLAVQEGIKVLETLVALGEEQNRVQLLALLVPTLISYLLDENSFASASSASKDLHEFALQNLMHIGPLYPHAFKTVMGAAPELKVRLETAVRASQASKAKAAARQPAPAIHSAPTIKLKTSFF
UniProt Q9UJY4: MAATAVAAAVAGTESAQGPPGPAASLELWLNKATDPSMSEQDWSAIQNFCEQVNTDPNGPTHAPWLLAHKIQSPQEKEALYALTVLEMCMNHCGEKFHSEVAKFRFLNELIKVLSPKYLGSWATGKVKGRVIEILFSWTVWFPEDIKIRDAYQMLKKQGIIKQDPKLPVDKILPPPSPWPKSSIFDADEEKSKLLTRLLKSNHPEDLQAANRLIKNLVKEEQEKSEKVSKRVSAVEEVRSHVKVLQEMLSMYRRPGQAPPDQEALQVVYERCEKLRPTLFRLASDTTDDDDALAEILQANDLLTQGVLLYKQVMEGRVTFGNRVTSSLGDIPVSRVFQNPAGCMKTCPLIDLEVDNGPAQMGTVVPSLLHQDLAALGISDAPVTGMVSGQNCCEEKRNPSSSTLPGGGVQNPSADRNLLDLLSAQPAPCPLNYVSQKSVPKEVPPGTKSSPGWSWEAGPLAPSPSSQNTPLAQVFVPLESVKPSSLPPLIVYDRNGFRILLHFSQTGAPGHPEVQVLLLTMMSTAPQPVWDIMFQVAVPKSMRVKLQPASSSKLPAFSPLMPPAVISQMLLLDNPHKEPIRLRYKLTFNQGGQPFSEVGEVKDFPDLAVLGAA
UniProt Q14677: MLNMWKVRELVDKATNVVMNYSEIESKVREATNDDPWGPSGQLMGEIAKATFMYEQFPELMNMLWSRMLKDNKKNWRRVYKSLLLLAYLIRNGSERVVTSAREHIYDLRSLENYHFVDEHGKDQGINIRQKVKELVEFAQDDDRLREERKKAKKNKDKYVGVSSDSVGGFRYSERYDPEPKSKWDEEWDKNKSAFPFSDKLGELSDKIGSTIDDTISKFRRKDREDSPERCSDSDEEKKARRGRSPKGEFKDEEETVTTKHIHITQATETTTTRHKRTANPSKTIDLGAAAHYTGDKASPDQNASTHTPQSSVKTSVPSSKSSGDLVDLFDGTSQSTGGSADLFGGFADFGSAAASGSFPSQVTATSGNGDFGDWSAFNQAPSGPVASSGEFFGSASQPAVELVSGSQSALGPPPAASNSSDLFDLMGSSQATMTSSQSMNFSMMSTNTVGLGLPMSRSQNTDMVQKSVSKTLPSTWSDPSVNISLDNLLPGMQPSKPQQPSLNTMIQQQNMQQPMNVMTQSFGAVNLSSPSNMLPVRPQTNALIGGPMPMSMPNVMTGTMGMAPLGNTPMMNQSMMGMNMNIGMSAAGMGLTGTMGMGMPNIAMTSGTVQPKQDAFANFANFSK
UniProt Q9Y6I3: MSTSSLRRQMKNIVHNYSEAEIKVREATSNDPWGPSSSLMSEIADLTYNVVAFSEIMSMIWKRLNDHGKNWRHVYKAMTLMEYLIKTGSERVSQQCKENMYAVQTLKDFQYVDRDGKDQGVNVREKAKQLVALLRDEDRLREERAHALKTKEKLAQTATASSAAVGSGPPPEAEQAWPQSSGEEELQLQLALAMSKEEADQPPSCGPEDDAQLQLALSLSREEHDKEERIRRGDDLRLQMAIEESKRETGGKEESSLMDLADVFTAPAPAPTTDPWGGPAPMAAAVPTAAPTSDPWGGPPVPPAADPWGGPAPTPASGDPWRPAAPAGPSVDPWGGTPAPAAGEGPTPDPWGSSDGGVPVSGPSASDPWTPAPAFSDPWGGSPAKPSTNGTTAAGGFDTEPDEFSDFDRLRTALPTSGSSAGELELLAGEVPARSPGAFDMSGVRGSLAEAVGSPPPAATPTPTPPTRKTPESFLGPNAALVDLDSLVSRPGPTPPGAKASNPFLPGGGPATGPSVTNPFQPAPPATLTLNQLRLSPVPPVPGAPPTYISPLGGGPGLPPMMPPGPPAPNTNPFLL

Key:
Assay in all cases: proximity labelling
[1] = target: AP2μ^EN-TurboID-V5 (human (endogenous in HeLa)) (UniProt Q96CW1)
[2] = target: T1, AP1μA^EN-TurboID-V5 (human (endogenous in HeLa)) (UniProt Q9BXS5)
T1 sequence: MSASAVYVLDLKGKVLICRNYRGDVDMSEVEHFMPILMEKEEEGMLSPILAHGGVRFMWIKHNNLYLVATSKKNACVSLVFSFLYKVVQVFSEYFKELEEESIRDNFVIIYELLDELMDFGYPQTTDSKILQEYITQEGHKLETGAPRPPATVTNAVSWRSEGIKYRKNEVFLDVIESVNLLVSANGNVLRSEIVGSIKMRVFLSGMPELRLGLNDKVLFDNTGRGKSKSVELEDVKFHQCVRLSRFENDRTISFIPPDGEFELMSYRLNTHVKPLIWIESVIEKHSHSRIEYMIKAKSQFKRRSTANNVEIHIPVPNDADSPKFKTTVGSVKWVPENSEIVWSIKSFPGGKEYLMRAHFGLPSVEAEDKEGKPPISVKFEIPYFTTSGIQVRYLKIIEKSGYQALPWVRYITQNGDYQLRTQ

[3] = target: T2, V5-TurboID-CLCa^EN (human (endogenous in HeLa)) (UniProt P09496)
T2 sequence: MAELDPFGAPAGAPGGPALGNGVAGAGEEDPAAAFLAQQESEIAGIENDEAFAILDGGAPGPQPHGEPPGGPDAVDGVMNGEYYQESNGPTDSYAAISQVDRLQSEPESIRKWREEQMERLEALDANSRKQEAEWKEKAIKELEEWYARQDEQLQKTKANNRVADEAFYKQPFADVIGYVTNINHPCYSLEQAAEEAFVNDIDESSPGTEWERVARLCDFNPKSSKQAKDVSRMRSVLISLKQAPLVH

[4] = target: T3, AP1μA-TurboID-V5 (transiently overexpressed) (UniProt Q9BXS5)
T3 sequence: T1 sequence

binding [1]: binds
Molecule: ITGA1 (from UniProt P56199 29-1179)

binding [2]: binds
Molecule: PI4-kinase PI4K2B (from UniProt Q8TCG2 1-481)

binding [1]: binds
binding [3]: binds
Molecule: Synaptojanin-1 (SYNJ1) (from UniProt O43426 1-1573)

binding [2]: binds
Molecule: ATP7A (from UniProt Q04656 1-1500)

binding [1]: binds
Molecule: ITGAV (from UniProt P06756 31-1048)

binding [3]: binds
Molecule: HEAT repeat containing 5B (HEATR5B) (from UniProt Q9P2D3 1-2071)

binding [4]: binds
binding [2]: binds
Molecule: GGA2 (from UniProt Q9UJY4 1-613)

binding [4]: binds
binding [2]: binds
Molecule: AP-1γ (human (endogenous in HeLa))

binding [4]: binds
binding [2]: binds
Molecule: kinesin-like protein KIF13A (from UniProt Q9H1H9 1-1805)

binding [2]: binds
Molecule: EpsinR (CLINT1) (from UniProt Q14677 1-625)

binding [2]: binds
Molecule: AP-1s (human (endogenous in HeLa))

binding [3]: binds
Molecule: Epsin-1 (EPS1) (from UniProt Q9Y6I3 1-576)

binding [2]: binds
B1: GGA3 (protein, UniProt Q9NZ52 1-723)
chain: MAEAEGESLESWLNKATNPSNRQEDWEYIIGFCDQINKELEGPQIAVRLLAHKIQSPQEWEALQALTVLEACMKNCGRRFHNEVGKFRFLNELIKVVSPKYLGDRVSEKVKTKVIELLYSWTMALPEEAKIKDAYHMLKRQGIVQSDPPIPVDRTLIPSPPPRPKNPVFDDEEKSKLLAKLLKSKNPDDLQEANKLIKSMVKEDEARIQKVTKRLHTLEEVNNNVRLLSEMLLHYSQEDSSDGDRELMKELFDQCENKRRTLFKLASETEDNDNSLGDILQASDNLSRVINSYKTIIEGQVINGEVATLTLPDSEGNSQCSNQGTLIDLAELDTTNSLSSVLAPAPTPPSSGIPILPPPPQASGPPRSRSSSQAEATLGPSSTSNALSWLDEELLCLGLADPAPNVPPKESAGNSQWHLLQREQSDLDFFSPRPGTAACGASDAPLLQPSAPSSSSSQAPLPPPFPAPVVPASVPAPSAGSSLFSTGVAPALAPKVEPAVPGHHGLALGNSALHHLDALDQLLEEAKVTSGLVKPTTSPLIPTTTPARPLLPFSTGPGSPLFQPLSFQSQGSPPKGPELSLASIHVPLESIKPSSALPVTAYDKNGFRILFHFAKECPPGRPDVLVVVVSMLNTAPLPVKSIVLQAAVPKSMKVKLQPPSGTELSPFSPIQPPAAITQVMLLANPLKEKVRLRYKLTFALGEQLSTEVGEVDQFPPVEQWGNL

binding [4]: binds
binding [2]: binds
B2: AP-1β1 (protein, UniProt Q10567 1-949)
chain: MTDSKYFTTTKKGEIFELKAELNSDKKEKKKEAVKKVIASMTVGKDVSALFPDVVNCMQTDNLELKKLVYLYLMNYAKSQPDMAIMAVNTFVKDCEDPNPLIRALAVRTMGCIRVDKITEYLCEPLRKCLKDEDPYVRKTAAVCVAKLHDINAQLVEDQGFLDTLKDLISDSNPMVVANAVAALSEIAESHPSSNLLDLNPQSINKLLTALNECTEWGQIFILDCLANYMPKDDREAQSICERVTPRLSHANSAVVLSAVKVLMKFMEMLSKDLDYYGTLLKKLAPPLVTLLSAEPELQYVALRNINLIVQKRPEILKHEMKVFFVKYNDPIYVKLEKLDIMIRLASQANIAQVLAELKEYATEVDVDFVRKAVRAIGRCAIKVEQSAERCVSTLLDLIQTKVNYVVQEAIVVIKDIFRKYPNKYESVIATLCENLDSLDEPEARAAMIWIVGEYAERIDNADELLESFLEGFHDESTQVQLQLLTAIVKLFLKKPTETQELVQQVLSLATQDSDNPDLRDRGYIYWRLLSTDPVAAKEVVLAEKPLISEETDLIEPTLLDELICYIGTLASVYHKPPSAFVEGGRGVVHKSLPPRTASSESAESPETAPTGAPPGEQPDVIPAQGDLLGDLLNLDLGPPVSGPPLATSSVQMGAVDLLGGGLDSLMGDEPEGIGGTNFVAPPTAAVPANLGAPIGSGLSDLFDLTSGVGTLSGSYVAPKAVWLPAMKAKGLEISGTFTRQVGSISMDLQLTNKALQVMTDFAIQFNRNSFGLAPAAPLQVHAPLSPNQTVEISLPLSTVGSVMKMEPLNNLQVAVKNNIDVFYFSTLYPLHILFVEDGKMDRQMFLATWKDIPNENEAQFQIRDCPLNAEAASSKLQSSNIFTVAKRNVEGQDMLYQSLKLTNGIWVLAELRIQPGNPSCTDLELSLKCRAPEVSQHVYQAYETILKN

binding [1]: binds
B3: Epsin-2 (EPS2) (protein, UniProt O95208 1-641)
chain: MTTSSIRRQMKNIVNNYSEAEIKVREATSNDPWGPSSSLMTEIADLTYNVVAFSEIMSMVWKRLNDHGKNWRHVYKALTLLDYLIKTGSERVAQQCRENIFAIQTLKDFQYIDRDGKDQGINVREKSKQLVALLKDEERLKAERAQALKTKERMAQVATGMGSNQITFGRGSSQPNLSTSHSEQEYGKAGGSPASYHGSPEASLCPQHRTGAPLGQSEELQPLSQRHPFLPHLGLASRPNGDWSQPCLTCDRAARATSPRVSSELEQARPQTSGEEELQLQLALAMSREVAEQEERLRRGDDLRLQMALEESRRDTVKIPKKKEHGSLPQQTTLLDLMDALPSSGPAAQKAEPWGPSASTNQTNPWGGPAAPASTSDPWPSFGTKPAASIDPWGVPTGATVQSVPKNSDPWAASQQPASSAGKRASDAWGAVSTTKPVSVSGSFELFSNLNGTIKDDFSEFDNLRTSKKTAESVTSLPSQNNGTTSPDPFESQPLTVASSKPSSARKTPESFLGPNAALVNLDSLVTRPAPPAQSLNPFLAPGAPATSAPVNPFQVNQPQPLTLNQLRGSPVLGTSTSFGPGPGVESMAVASMTSAAPQPALGATGSSLTPLGPAMMNMVGSVGIPPSAAQATGTTNPFLL

binding [2]: binds
B4: GGA1 (protein, UniProt Q9UJY5 1-639)
chain: MEPAMEPETLEARINRATNPLNKELDWASINGFCEQLNEDFEGPPLATRLLAHKIQSPQEWEAIQALTVLETCMKSCGKRFHDEVGKFRFLNELIKVVSPKYLGSRTSEKVKNKILELLYSWTVGLPEEVKIAEAYQMLKKQGIVKSDPKLPDDTTFPLPPPRPKNVIFEDEEKSKMLARLLKSSHPEDLRAANKLIKEMVQEDQKRMEKISKRVNAIEEVNNNVKLLTEMVMSHSQGGAAAGSSEDLMKELYQRCERMRPTLFRLASDTEDNDEALAEILQANDNLTQVINLYKQLVRGEEVNGDATAGSIPGSTSALLDLSGLDLPPAGTTYPAMPTRPGEQASPEQPSASVSLLDDELMSLGLSDPTPPSGPSLDGTGWNSFQSSDATEPPAPALAQAPSMESRPPAQTSLPASSGLDDLDLLGKTLLQQSLPPESQQVRWEKQQPTPRLTLRDLQNKSSSCSSPSSSATSLLHTVSPEPPRPPQQPVPTELSLASITVPLESIKPSNILPVTVYDQHGFRILFHFARDPLPGRSDVLVVVVSMLSTAPQPIRNIVFQSAVPKVMKVKLQPPSGTELPAFNPIVHPSAITQVLLLANPQKEKVRLRYKLTFTMGDQTYNEMGDVDQFPPPETWGSL

binding [2]: binds
B5: Sodium-bicarbonate co-transporter NBCn1 (SLC4A7) (protein, UniProt Q9Y6M7 1-1214)
chain: MERFRLEKKLPGPDEEAVVDLGKTSSTVNTKFEKEELESHRAVYIGVHVPFSKESRRRHRHRGHKHHHRRRKDKESDKEDGRESPSYDTPSQRVQFILGTEDDDEEHIPHDLFTEMDELCYRDGEEYEWKETARWLKFEEDVEDGGDRWSKPYVATLSLHSLFELRSCILNGTVMLDMRASTLDEIADMVLDNMIASGQLDESIRENVREALLKRHHHQNEKRFTSRIPLVRSFADIGKKHSDPHLLERNGEGLSASRHSLRTGLSASNLSLRGESPLSLLLGHLLPSSRAGTPAGSRCTTPVPTPQNSPPSSPSISRLTSRSSQESQRQAPELLVSPASDDIPTVVIHPPEEDLEAALKGEEQKNEENVDLTPGILASPQSAPGNLDNSKSGEIKGNGSGGSRENSTVDFSKVDMNFMRKIPTGAEASNVLVGEVDFLERPIIAFVRLAPAVLLTGLTEVPVPTRFLFLLLGPAGKAPQYHEIGRSIATLMTDEIFHDVAYKAKDRNDLLSGIDEFLDQVTVLPPGEWDPSIRIEPPKSVPSQEKRKIPVFHNGSTPTLGETPKEAAHHAGPELQRTGRLFGGLILDIKRKAPFFLSDFKDALSLQCLASILFLYCACMSPVITFGGLLGEATEGRISAIESLFGASLTGIAYSLFAGQPLTILGSTGPVLVFEKILYKFCRDYQLSYLSLRTSIGLWTSFLCIVLVATDASSLVCYITRFTEEAFAALICIIFIYEALEKLFDLGETYAFNMHNNLDKLTSYSCVCTEPPNPSNETLAQWKKDNITAHNISWRNLTVSECKKLRGVFLGSACGHHGPYIPDVLFWCVILFFTTFFLSSFLKQFKTKRYFPTKVRSTISDFAVFLTIVIMVTIDYLVGVPSPKLHVPEKFEPTHPERGWIISPLGDNPWWTLLIAAIPALLCTILIFMDQQITAVIINRKEHKLKKGAGYHLDLLMVGVMLGVCSVMGLPWFVAATVLSISHVNSLKVESECSAPGEQPKFLGIREQRVTGLMIFILMGLSVFMTSVLKFIPMPVLYGVFLYMGVSSLKGIQLFDRIKLFGMPAKHQPDLIYLRYVPLWKVHIFTVIQLTCLVLLWVIKVSAAAVVFPMMVLALVFVRKLMDLCFTKRELSWLDDLMPESKKKKEDDKKKKEKEEAERMLQDDDDTVHLPFEGGSLLQIPVKALKYSPDKPVSVKISFEDEPRKKYVDAETSL
